Source: the supplement of paper PMC5949888
Most values lie at the floor of the assay. Slopes are relative: functional sequences can read slightly below zero.

Test system: Saccharomyces cerevisiae PS128 hsf1 delta, HSF1(1-493) fusion
Test: growth estimate (transactivation domain function in HSF1 fusion, heat-shock survival) (a.u. (slope of normalised read count over time)); higher = stronger growth at 37°C, i.e. more transactivation activity
Conditions: library: random library

| Substance | growth estimate |
| --- | --- |
| AAAN | < -0.25 |
| PNHGQGVRPWHLRTWLNP | < -0.25 |
| RKYS | < -0.25 |
| ASLLGTALQDPLEAA | < -0.25 |
| CHVRAQFAHPFGQGD | < -0.25 |
| CRKRSMTRTTRLGLASGRPR | < -0.25 |
| FSRSALWSQECSMS | < -0.25 |
| QLHLSPSTMGT | < -0.25 |
| KFLENLG | < -0.25 |
| RSTRGATSQQVRSRHSLSVV | < -0.25 |
| CKQDVWIR | < -0.25 |
| RDFAVPTSGSYEHQ | < -0.25 |
| ERAWAQIGHPC | < -0.25 |
| KDCTKDLGGTRDFCKEASVF | < -0.25 |
| SWRVSFTQKQDYGSVTCPEQ | < -0.25 |
| IWYY | < -0.25 |
| HVIIPY | < -0.25 |
| AYSKI | < -0.25 |
| ATKIQPIID | < -0.25 |
| TEFSREARQGAIWVDCSSRL | < -0.25 |
| SNRGRYVPIGSCLSRLAADR | < -0.25 |
| KLKIFCGNVIQIGTRAKVWA | < -0.25 |
| NDRRQACYARGALHRISSFS | < -0.25 |
| EILAKQYSGPG | < -0.25 |
| TRACFS | < -0.25 |

| Substance | growth estimate |
| --- | --- |
| SGHIRYVP | < -0.25 |
| SSCKGQISLRPKGCGKVKQ | < -0.25 |
| VPLFFGIIRVLSCVVSFVMN | < -0.25 |
| LTAPAV | < -0.25 |
| PIKAIPSRLLLVLDQSLSFH | < -0.25 |
| TLLIRGRGS | < -0.25 |
| GTQASTGASKRCCRGVHLQR | < -0.25 |
| IVVVERV | -0.25 |
| RTKVEVVGRFHERYSCTSRV | < -0.25 |
| TGHC | < -0.25 |
| YIIARCCMVTRRRKIEYYEL | < -0.25 |
| EVPFLPARSIGSNDLRTQVG | < -0.25 |
| MVH | < -0.25 |
| ICDACTSISGHDH | < -0.25 |
| ATWDATASLR | < -0.25 |
| DFHVAGDRSPPAVHISSARG | < -0.25 |
| TSVQGRVLRTWGVEFGTLSQ | < -0.25 |
| EGIPFEPLV | < -0.25 |
| NCILCRLPLR | < -0.25 |
| DGNLFRKGES | < -0.25 |
| EEIPPRNFNIVTITW | < -0.25 |
| GTPAGFPEMRRLKARLVG | < -0.25 |
| PWVIALRTSVCLVAALRL | < -0.253 |
| VYRAVRSRVPADR | < -0.25 |
| DNLRRTSPEVSL | < -0.25 |

Rewritten as tab-separated lines: entries from further up.
Substance	growth estimate
TLLIRGRGS	< -0.25
ATWDATASLR	< -0.25

Next entries

| Substance | growth estimate |
| --- | --- |
| YTFRCSSV | < -0.25 |
| ADRTRTHK | < -0.25 |
| FFIYVTKAQRV | < -0.25 |
| DMVCNFPQGTR | < -0.25 |
| STKAPIQH | < -0.25 |
| GYRS | < -0.25 |
| FLYKVHTHTTMHVPAHAHVG | < -0.25 |
| DEEDVCKMISESMFRVIHPG | < -0.25 |
| TESKCLLAH | < -0.25 |
| SPGEVSGVPRLRPACV | < -0.25 |
| QATKCGG | < -0.25 |
| TEDGTDSRLLRCQEDACHPW | < -0.25 |
| RGEHGQKYPAKSGVMNRYDS | -0.246 |
| SGYAHPCCTPKLTILATS | < -0.25 |
| LVNGRNKNVSRPWR | -0.231 |
| FYVIDLRQDSAVYVTAIRSK | < -0.25 |
| ASR | < -0.25 |
| MLVHRDYFSTCIGGFIALFC | < -0.25 |
| LGVS | -0.245 |
| DKHSRLLDPANHYAPEMAIA | < -0.25 |
| SGPVRSFAIAHQRQVH | < -0.25 |
| PLTRPEGLIQQALV | < -0.25 |
| IFTV | < -0.25 |
| TAPWARCRVGGLSVQPVLWG | < -0.25 |
| QGWQCMDRL | < -0.25 |

Laid out differently: entries from further up.
EGIPFEPLV
  growth estimate = < -0.25
NCILCRLPLR
  growth estimate = < -0.25
DGNLFRKGES
  growth estimate = < -0.25

More entries follow.

| Substance | growth estimate |
| --- | --- |
| VTGMGLPVSLVGLAPSPEYV | < -0.25 |
| AYDIMGSAGGYTGRISELSR | < -0.25 |
| AITGPSGQGYRRNRKSHNAV | < -0.25 |
| WAAEFGMALGNVSSLSGPEP | < -0.25 |
| AVGSLVGV | < -0.25 |
| TGGWWSGGG | < -0.25 |
| NRGAYPTCFICQ | < -0.25 |
| LSGGDDVPLWVRLSDTSTEV | -0.173 |
| TFHVSSRTWFSVRPRLRQSC | < -0.25 |
| RVGFGRKSEAC | < -0.25 |
| LRERVRSEAHTTRVGPCEYK | < -0.25 |
| RSHYRVLGVLGEVTLGVSIR | 0.0073 |
| QRDLRAKVKLTLSALI | < -0.25 |
| VHGSSVEF | < -0.25 |
| SRDITPRLDLDFG | < -0.25 |
| VGASGLQAGRVLLKRSAP | < -0.25 |
| QTWEYPGGGADVVDYNWHAL | < -0.25 |
| SHEVAGTRLFQGYDEWSLIG | 0.527 |
| IWQGYPKWSLSTGSKRERGK | < -0.25 |
| YVGLVDLPCNLAPSA | -0.231 |
| NLVRYNLDRLFEPIAGRPCI | < -0.25 |
| NGESVSDKLKVLRFTGAQQA | < -0.25 |
| CNKLPDPVHSYIPVYGASPL | < -0.25 |
| TEHTLWQVLVGAGGKMTGEG | < -0.25 |
| WILLIRVEVFACALGTQAPQ | < -0.25 |
